Results published in PubChem BioAssay AID743255 (National Center for Advancing Translational Sciences (NCATS), 2014).
Among all 390,000 compounds or so, about 910 (0.23%) were called active. Inconclusive means that the source gave no clear call. Such entries were picked first, then a sample of the others. The call rests on the fitted dose curve; in most records, active means well fitted inhibition curve with a large enough effect; inconclusive means small, poorly fitted or top-dose-only effect; inactive means no such curve, though single readings can be large or run the other way. Potencies beside an inconclusive call are fits to weak or partial responses and may not hold up. Non-standard residues stand in square brackets, D forms with d. Residues, ends and D or L forms follow the SMILES beside them. *: point of attachment. Phe(4-Me) = Cc1ccc(C[CH](N)C(=O)O)cc1; Bz = O=C(c1ccccc1)*

Protein sequences, listed by entry. Tags and fused reporters are not part of them. Lines headed by an entry give the natural chain unless they say otherwise; changes in a name come on top.
UniProt O94782: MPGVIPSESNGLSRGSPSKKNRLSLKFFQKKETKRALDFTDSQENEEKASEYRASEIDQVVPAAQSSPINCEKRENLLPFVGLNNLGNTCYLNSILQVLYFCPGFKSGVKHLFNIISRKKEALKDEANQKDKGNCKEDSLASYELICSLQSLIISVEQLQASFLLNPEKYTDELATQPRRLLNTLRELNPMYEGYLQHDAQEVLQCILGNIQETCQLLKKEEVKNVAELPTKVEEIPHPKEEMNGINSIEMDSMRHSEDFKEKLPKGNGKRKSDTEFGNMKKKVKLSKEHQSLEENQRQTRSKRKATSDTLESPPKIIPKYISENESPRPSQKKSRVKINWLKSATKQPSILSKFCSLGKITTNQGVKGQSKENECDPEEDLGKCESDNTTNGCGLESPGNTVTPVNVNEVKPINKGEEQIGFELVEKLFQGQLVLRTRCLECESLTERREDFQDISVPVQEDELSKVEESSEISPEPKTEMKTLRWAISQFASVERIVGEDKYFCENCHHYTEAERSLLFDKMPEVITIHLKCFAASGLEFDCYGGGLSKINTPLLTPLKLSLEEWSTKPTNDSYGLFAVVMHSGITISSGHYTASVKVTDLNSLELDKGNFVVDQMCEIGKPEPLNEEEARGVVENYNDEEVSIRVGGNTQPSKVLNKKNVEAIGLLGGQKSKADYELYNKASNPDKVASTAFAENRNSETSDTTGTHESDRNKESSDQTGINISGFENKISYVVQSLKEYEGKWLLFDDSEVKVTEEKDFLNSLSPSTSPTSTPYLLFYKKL

The compounds below were run against Ubiquitin carboxyl-terminal hydrolase 1 (Homo sapiens) (UniProt O94782) (assay: Inhibitors of USP1/UAF1: Primary Screen). Conditions: recombinant USP1/UAF1, Ub-Rhodamine cleavage fluorescence; activity change, negative = inhibition: at 57.1 µM (top of the series).
How it was run: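 High-throughput fluorogenic screen: 1nM USP1/UAF1 complex, Ub-Rho substrate 150nM final, 50mM HEPES pH 7.8 with 0.5mM EDTA, 0.1 mg/ml BSA, 1mM TCEP and 0.01% Tween-20.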
Further: nearly all actives have a fitted effect of over 60% in size.
On the % scale 0 is the no-effect control and ±100 the full control effect; potency means the concentration at half of the fitted maximal effect.

Potency, inconclusive:
COc1cccc2[nH]c(C(=O)NN)c(N)c12 31.6 µM [inhibitor, partial curve]
CCCCNc1cc(N2CCN(C3CCCCC3)CC2)c2noc3c2c1C(=O)c1ccccc1-3 35.5 µM [inhibitor, partial curve, poor fit]
COc1ccc(/C=N/N(C)c2cc(=O)n(C)c(=O)[nH]2)cc1OC 28.2 µM [inhibitor, partial curve]
CCc1nnc(SCC(=O)Nc2ccc(N3CCN(S(C)(=O)=O)CC3)cc2)o1 28.2 µM [inhibitor, partial curve]
Cc1ccc(Cl)cc1NC(=O)c1cc(-c2ccc3c(c2)OCCO3)on1 22.4 µM [inhibitor, partial curve]
CCCCN(C(=O)c1cccc(-n2cnnn2)c1)c1c(N)n(CCCC)c(=O)[nH]c1=O 0.0891 µM [inhibitor, full curve, poor fit]
CCOC(=O)c1ccc[n+]([O-])c1 1.12 µM [inhibitor, full curve, poor fit]
COc1ccc(-c2nnc(SCC(=O)NCCc3ccccc3)nc2-c2ccc(OC)cc2)cc1 31.6 µM [inhibitor, partial curve, poor fit]
Cc1cc(Br)ccc1-n1[nH]c(C)c(C=Nc2cccc3nsnc23)c1=O 31.6 µM [inhibitor, partial curve]
C#CCOCCOCCOCCNc1nc(N2CCOCC2)nc(N2CCN(C(=O)CCCCCCCCCCNC(=O)[C@H]([C@@H](C)CC)n3cc(CCCCN=C(N)N)nn3)CC2)n1 39.8 µM [inhibitor, partial curve]
Cc1cc(C)c2c(n1)SCC(=O)N2CC(=O)Nc1cccc(C)c1C 44.7 µM [inhibitor, partial curve, poor fit]
COc1cccc(Cn2c(=O)n(CC3CCC(C(=O)N4CCOCC4)CC3)c(=O)c3sccc32)c1 (stereo not given) 35.5 µM [inhibitor, partial curve, poor fit]
COc1ccc(C(=O)Nc2ccc3nc(N4CCCCC4)cc(C)c3c2)cc1OC 1.12 µM [inhibitor, full curve, poor fit]
Cc1ccc(C(=O)Nc2nnc(S(=O)(=O)N3CCCc4ccccc43)s2)cc1 35.5 µM [inhibitor, partial curve]
Fc1ccc(Nc2c(-c3c[nH]c4ccccc34)nc3ccccn23)cc1 6.31 µM [inhibitor, single point]
CC(C)Nc1ccc(C(CC(N)=O)NC(=O)Cc2ccc(Br)cc2)cc1[N+](=O)[O-] (stereo not given) 0.251 µM [inhibitor, full curve, poor fit]
CC1=C/C(=N\OS(=O)(=O)c2ccccc2)C=CC1=O 35.5 µM [inhibitor, single point]
O=C1CSC2(C(=O)N(Cc3c(F)cccc3Cl)c3ccccc32)N1c1ccc(F)c(F)c1 (stereo not given) 0.355 µM [inhibitor, full curve]
Cc1ccc(CC(NC(=O)c2ccccc2)C(=O)NC(Cc2ccccc2)C(=O)O)cc1 (stereo not given) (Bz-[Phe(4-Me)]-Phe-OH; configuration not given here) 8.91 µM [inhibitor, single point]
Cc1cc(C)cc(NC(=O)CSc2nc3c(cnn3-c3ccc(F)cc3)c(=O)[nH]2)c1 39.8 µM [inhibitor, partial curve, poor fit]
COc1cc(NS(=O)(=O)c2cc3c(cc2C)n(C)c(=O)c(=O)n3C)cc(OC)c1 2.51 µM [inhibitor, partial curve]
O=C1C2=C(c3ccccc31)[N+](=O)[C@@H]1CCCC[C@@H]1N2[O-] 20 µM [inhibitor, partial curve, poor fit]
COc1ccc(CCNC(=O)CSc2nc3ccccc3nc2Cc2ccc(Cl)cc2)cc1OC 10 µM [inhibitor, full curve, poor fit]
Cn1nc(-c2ccccc2)c(CO)c1Oc1cccc(C(F)(F)F)c1 7.08 µM [inhibitor, full curve, poor fit]

Activity change, negative = inhibition, inactive:
CCc1cc(-c2nnn(CCC3COCCO3)c2CC)cc(CC)c1-c1cn(Cc2ccccc2)nn1 (stereo not given) -22.3%
CCc1nc(Nc2cccc(OC)c2)c2oc3ccccc3c2n1 -22.4%
O=C(Cc1ccc(NC(=O)N2CCCCc3ccccc32)cc1)Nc1ccccc1Br -2.97%
CCC(C)C(N)C1=NC(C(=O)N[C@@H](CC(C)C)C(=O)N[C@H](CCC(=O)[O-])C(=O)N[C@H](C(=O)N[C@H]2CCCCNC(=O)[C@H](CC(N)=O)NC(=O)[C@@H](CC(=O)[O-])NC(=O)[C@H](Cc3cnc[nH]3)NC(=O)[C@@H](Cc3ccccc3)NC(=O)[C@H]([C@@H](C)CC)NC(=O)[C@@H](CCCN)NC2=O)[C@@H](C)CC)CS1.[Zn+2] (stereo not given in full) -9.32%
CCCn1cc(SCC(=O)Nc2ccc3c(c2)OCO3)c2ccccc21 -19%
O=C(CSc1ncc2c(n1)-c1cc(Cl)ccc1N(Cc1ccccc1)S2(=O)=O)NCc1ccccc1 -6.48%
CCCCOC(=O)c1ccc(NC(=O)c2cc(=O)c3ccccc3o2)cc1 -11.8%
Cc1cc(SCC(=O)Nc2ccc(C(F)(F)F)cc2)nc(=O)[nH]1 -6.21%
COc1ccc(CNC(=O)CCCSc2ccccc2)cc1 -15.8%
Cc1[nH]c2ccccc2c1/C=N/NC(=S)NCc1ccccc1 -16.8%
ClC1=C(Cl)C(Cl)=C(Cl)C1=C/C=C/c1ccccc1 -26.1%
N#CC1=C(N)OC2=C(CC/C2=C\c2ccccc2Cl)C1c1ccccc1Cl (stereo not given) -19%
O=C(O)Cc1cn(Cc2ccc(F)cc2)c2ccccc12 -21.4%
CC(=O)Nc1n[nH]c(=S)s1 -3.02%
CC(C)(C)c1ccc2c(c1)C(=O)c1ccccc1C2=O -22.4%

7 consecutive entries from above, for reference:
Activity change, negative = inhibition, inactive:
O=C(Cc1ccc(NC(=O)N2CCCCc3ccccc32)cc1)Nc1ccccc1Br -2.97%
CCC(C)C(N)C1=NC(C(=O)N[C@@H](CC(C)C)C(=O)N[C@H](CCC(=O)[O-])C(=O)N[C@H](C(=O)N[C@H]2CCCCNC(=O)[C@H](CC(N)=O)NC(=O)[C@@H](CC(=O)[O-])NC(=O)[C@H](Cc3cnc[nH]3)NC(=O)[C@@H](Cc3ccccc3)NC(=O)[C@H]([C@@H](C)CC)NC(=O)[C@@H](CCCN)NC2=O)[C@@H](C)CC)CS1.[Zn+2] (stereo not given in full) -9.32%
CCCn1cc(SCC(=O)Nc2ccc3c(c2)OCO3)c2ccccc21 -19%
O=C(CSc1ncc2c(n1)-c1cc(Cl)ccc1N(Cc1ccccc1)S2(=O)=O)NCc1ccccc1 -6.48%
CCCCOC(=O)c1ccc(NC(=O)c2cc(=O)c3ccccc3o2)cc1 -11.8%
Cc1cc(SCC(=O)Nc2ccc(C(F)(F)F)cc2)nc(=O)[nH]1 -6.21%
COc1ccc(CNC(=O)CCCSc2ccccc2)cc1 -15.8%

Next part.

Activity change, negative = inhibition, inconclusive:
O=C(N/N=C/c1ccc([N+](=O)[O-])o1)c1cn2ccc3ccccc3c2n1 -16.5% [inhibitor]
